No constants are given. Whether binding was seen depends on the method and setting. In cells and extracts the contact can be indirect. Some binding calls cover weakened binding; strength is not graded here.

Protein sequences, listed by entry. Tags and fused reporters are not part of them. Lines headed by an entry give the natural chain unless they say otherwise; changes in a name come on top.
UniProt Q8IYI6: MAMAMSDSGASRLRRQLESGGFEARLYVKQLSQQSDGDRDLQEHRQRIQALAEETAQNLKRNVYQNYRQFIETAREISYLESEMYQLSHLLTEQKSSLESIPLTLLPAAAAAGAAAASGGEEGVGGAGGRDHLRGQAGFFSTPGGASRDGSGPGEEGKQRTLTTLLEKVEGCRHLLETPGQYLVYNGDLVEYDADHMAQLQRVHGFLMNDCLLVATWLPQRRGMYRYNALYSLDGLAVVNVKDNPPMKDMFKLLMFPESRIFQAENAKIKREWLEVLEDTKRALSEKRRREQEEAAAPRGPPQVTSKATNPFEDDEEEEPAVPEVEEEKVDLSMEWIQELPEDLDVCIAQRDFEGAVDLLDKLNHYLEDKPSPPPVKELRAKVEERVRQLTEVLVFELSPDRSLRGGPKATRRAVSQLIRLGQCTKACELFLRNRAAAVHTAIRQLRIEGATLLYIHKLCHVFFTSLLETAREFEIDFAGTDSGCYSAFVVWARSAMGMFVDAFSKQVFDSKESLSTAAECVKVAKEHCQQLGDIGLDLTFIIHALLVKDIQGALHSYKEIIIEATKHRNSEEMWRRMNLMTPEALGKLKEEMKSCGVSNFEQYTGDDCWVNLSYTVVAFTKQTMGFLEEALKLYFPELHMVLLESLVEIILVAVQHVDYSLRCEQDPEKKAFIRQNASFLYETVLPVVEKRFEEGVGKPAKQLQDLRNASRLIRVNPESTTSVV
UniProt Q14457: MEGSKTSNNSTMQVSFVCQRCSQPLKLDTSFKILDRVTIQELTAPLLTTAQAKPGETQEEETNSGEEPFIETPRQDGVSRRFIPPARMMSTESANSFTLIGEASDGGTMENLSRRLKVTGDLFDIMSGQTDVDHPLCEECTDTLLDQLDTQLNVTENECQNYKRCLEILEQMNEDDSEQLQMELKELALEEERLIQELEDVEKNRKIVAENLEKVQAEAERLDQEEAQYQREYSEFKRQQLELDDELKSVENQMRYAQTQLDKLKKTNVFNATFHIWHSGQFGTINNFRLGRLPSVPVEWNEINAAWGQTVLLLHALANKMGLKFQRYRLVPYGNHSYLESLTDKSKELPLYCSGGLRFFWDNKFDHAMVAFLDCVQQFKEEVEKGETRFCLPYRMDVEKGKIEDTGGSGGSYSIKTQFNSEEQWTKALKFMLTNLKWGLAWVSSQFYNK
UniProt Q15208: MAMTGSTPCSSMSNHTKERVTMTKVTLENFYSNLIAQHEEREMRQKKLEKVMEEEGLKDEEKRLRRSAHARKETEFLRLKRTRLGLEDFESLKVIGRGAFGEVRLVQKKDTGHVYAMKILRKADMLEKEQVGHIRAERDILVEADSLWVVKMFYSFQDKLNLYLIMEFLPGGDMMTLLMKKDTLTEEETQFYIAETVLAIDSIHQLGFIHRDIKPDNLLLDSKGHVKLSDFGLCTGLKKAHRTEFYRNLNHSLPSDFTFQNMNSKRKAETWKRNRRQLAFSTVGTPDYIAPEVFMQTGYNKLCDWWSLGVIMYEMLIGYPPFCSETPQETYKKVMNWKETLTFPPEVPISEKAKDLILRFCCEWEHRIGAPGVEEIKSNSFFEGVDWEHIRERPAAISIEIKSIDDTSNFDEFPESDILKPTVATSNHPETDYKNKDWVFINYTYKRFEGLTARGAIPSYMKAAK

Experiment [1] has as its target Exo84-HA (UniProt Q8IYI6). In words: co-IP; HEK293T cells transfected with control or STK38 siRNAs, then with vectors; Exo84-HA immunoprecipitated with anti-HA; basal or EBSS for 90 min; RalB or Beclin1 detected by western blotting.
The target of experiment [2] is endogenous Beclin1 (human (endogenous in HEK293)) (UniProt Q14457). In words: co-IP; endogenous proteins, HEK293 whole-cell extracts; Beclin1 immunoprecipitated with anti-Beclin1 (sc-10087), STK38 detected by western blotting; controls beads only and control IgG.
Experiment [3] concerns the target Beclin1-HA (UniProt Q14457). In words: co-IP; HEK293T cells co-transfected with Beclin1-HA and myc-STK38 variants; Beclin1-HA immunoprecipitated with anti-HA (12CA5), STK38 detected with anti-myc.

With “Beclin1 (co-expressed with Exo84-HA, Figure 5C) (from UniProt Q14457 1-450)”, the binding entry in experiment [1] is listed as “binds”.
As for “endogenous STK38 (from UniProt Q15208 1-465) (enzyme)”, the binding entry in experiment [2] is given as “binds”.
Consider “myc-STK38 (83-465), lacking the N-terminal regulatory (NTR) domain (from UniProt Q15208 83-465) (domain or fragment)”, for which, in experiment [3], the binding result is recorded as “binds”.
On the same count and under the same terms, for “myc-STK38 D230N (kinase-dead, Mg-binding mutant) (from UniProt Q15208 1-465) (enzyme)” the value was “binds”; for “myc-STK38 K118R (kinase-dead, ATP-binding mutant) (from UniProt Q15208 1-465) (enzyme)”, “binds”.
With “myc-STK38 R41A (MOB1A/B-binding mutant) (from UniProt Q15208 1-465) (enzyme)”, in experiment [3], the binding entry is recorded as “binds”.
Still for that read-out and setting: for “myc-STK38 Y31A (MOB1A/B-binding mutant) (from UniProt Q15208 1-465) (enzyme)” the value was “binds”; for “myc-STK38 wild-type (from UniProt Q15208 1-465) (enzyme)”, “binds”.

Source of the values: article PMC4598746.
